The nature of the series: peptide synthesis. Particulars: conjugation step.

The substance BCN-LPETGG yielded a conjugation yield of 72%.

These data come from patent US20230114866A1 (published 2023).
